In publication PMC6637791:
No constants are given. Whether binding was seen depends on the method and setting. Some results given as binding are weak or reduced against the parent protein; the word gives no strength. For some assays here: Tags and fused reporters may be left off the sequences shown.

Experiments:
[1] = target: T1, TatC (wild type, C-terminally hexahistidine-tagged) (Escherichia coli) (UniProt P69423); test: native gel or EMSA; BN-PAGE/Western blot of membranes solubilized with 1% digitonin, without beta-mercaptoethanol; blots with TatB, TatC or (after stripping) EfeB antibodies; EfeB overproduced where indicated
T1 sequence: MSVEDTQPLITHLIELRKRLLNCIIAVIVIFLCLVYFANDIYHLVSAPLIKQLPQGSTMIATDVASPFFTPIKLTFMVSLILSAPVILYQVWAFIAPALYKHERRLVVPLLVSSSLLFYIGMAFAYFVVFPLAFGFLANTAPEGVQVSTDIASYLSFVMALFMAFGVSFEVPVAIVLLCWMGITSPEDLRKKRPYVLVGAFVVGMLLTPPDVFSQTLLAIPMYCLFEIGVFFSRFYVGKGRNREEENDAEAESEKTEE

[2] = target: T2, TatC I50Y (Escherichia coli) (UniProt P69423); test: as above
T2 sequence: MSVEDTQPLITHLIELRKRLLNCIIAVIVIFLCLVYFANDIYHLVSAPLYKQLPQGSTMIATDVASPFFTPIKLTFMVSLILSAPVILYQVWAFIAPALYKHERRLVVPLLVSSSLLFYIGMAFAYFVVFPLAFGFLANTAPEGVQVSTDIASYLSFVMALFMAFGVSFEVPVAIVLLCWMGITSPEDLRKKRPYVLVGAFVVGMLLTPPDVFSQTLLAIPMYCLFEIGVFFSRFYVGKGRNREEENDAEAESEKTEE

B1: TatB (protein, UniProt P69425 1-171)
chain: MFDIGFSELLLVFIIGLVVLGPQRLPVAVKTVAGWIRALRSLATTVQNELTQELKLQEFQDSLKKVEKASLTNLTPELKASMDELRQAAESMKRSYVANDPEKASDEAHTIHNPVVKDNEAAHEGVTPAAAQTQASSPEQKPETTPEPVVKPAADAEPKTAAPSPSSSDKP
[1]
  binding: binds
[2]
  binding: binds
